Values of other authors as cited in US9402925B2, “Probes and methods of imaging a bacterial infection” (The Board of Trustees of the Leland Stanford Junior …, priority 2013, dated 2016).
At least one compound was matched to its structure with a doubt left.

Tested on: maltose-maltodextrine system of E. coli
Conditions: cited from earlier work

C[C@H]1O[C@H](O[C@H]2[C@H](O)[C@@H](O)[C@@H](O[C@H]3[C@H](O)[C@@H](O)C(O)O[C@@H]3CO)O[C@@H]2CO)[C@H](O)[C@@H](O)[C@@H]1N[C@H]1C=C(CO)[C@@H](O)[C@H](O)[C@H]1O (stereo partly shown) [acarbose]
transport and metabolism by the maltose-maltodextrine system of E. coli: transported but not metabolized
